According to patent US20210009714A1:
Results are given in words; binding and its absence hold for the method and conditions named. Some results given as binding are weak or reduced against the parent protein; the word gives no strength.

Chains of the proteins cited; added tags and fusions are not shown. Lines headed by an entry give the natural chain unless they say otherwise; changes in a name come on top.
UniProt P31785: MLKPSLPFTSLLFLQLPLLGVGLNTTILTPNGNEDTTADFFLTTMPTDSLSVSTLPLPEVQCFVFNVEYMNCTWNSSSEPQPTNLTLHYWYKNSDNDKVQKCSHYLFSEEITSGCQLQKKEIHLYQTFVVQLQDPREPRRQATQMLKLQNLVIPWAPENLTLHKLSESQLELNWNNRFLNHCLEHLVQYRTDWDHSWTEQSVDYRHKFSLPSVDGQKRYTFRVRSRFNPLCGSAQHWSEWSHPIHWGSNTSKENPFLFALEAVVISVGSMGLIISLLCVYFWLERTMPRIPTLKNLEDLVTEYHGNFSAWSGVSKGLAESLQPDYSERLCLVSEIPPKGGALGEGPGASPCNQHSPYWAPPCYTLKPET

Molecular target: Protein G/hFcγRI chimeric protein (Streptococcus strain G148; human)
Experiment: flow cytometry on RGC19 cells, rabbit IgG block, FITC anti-human IgG F(ab')2 detection

binding: binds
Substance: 4SC622 (from UniProt P31785 23-262; P24394 26-232; P01857 104-330) (Fc fusion)
